# The list shows a part of the results. Values are raw readings; no control value is given beside them.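 In the initial screen, polymyxin B was used at a concentration that permeabilizes Salmonella's outer membrane but not its inner membrane. Maximum growth was set by DMSO wells with or without polymyxin B. Since plates varied, data were ranked per plate, and compounds giving the lowest OD600 advanced as hits.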
# Tested on: Salmonella enterica serovar Typhimurium SL1344
# Experiment: bacterial growth OD600 after 18 h with compound and polymyxin B; higher = more bacterial growth (less inhibition)
# Settings: 50 µM, Mueller-Hinton broth
Structure (SMILES),bacterial growth OD600 (polymyxin B 0.75 µg/mL),bacterial growth OD600 (polymyxin B 1 µg/mL)
COc1cc(CNC2COc3ccccc3C2)cc(OC)c1O (stereo unspecified),0.824,
O=C(Cc1c[nH]c2ccccc12)N1CCCC(CO)(CCOc2ccccc2)C1 (stereo unspecified),0.785,
CCC(=O)N1CCCC(C(=O)Nc2cccc(-c3cc4ccccc4[nH]3)c2)C1 (stereo unspecified),,0.801
CCc1ccc(CN(C)C(=O)c2cc(Cn3ccc4ccccc43)[nH]n2)nc1,0.005,
COCc1ccc(C(=O)Nc2ccc(-c3nc(CNC(=O)C(=O)CC(C)C)c(C)o3)cc2)o1,0.396,
O=C(c1ccc(Oc2ccccc2)cc1)C1CCCN(C(=O)CN2C(=O)CSC2=O)C1 (stereo unspecified),,0.004
O=C(Nc1ccc(Oc2ccccc2)nc1)C1CCN(Cc2ccsc2)CC1,,0.86
NC(=O)c1ccc(-c2ccc(F)c3c2OC(CNC(=O)CN2CC(c4ccccc4)CC2=O)C3)cc1 (stereo unspecified),0.775,
Cc1ncc2c(c1CNC(=O)CN1CCCCC1)CCN(C(=O)c1ccc(-c3ccccc3)cc1)C2,0.791,
COc1cccc(O)c1CN1Cc2cc(Cl)ccc2OC(C)C1 (stereo unspecified),0.117,
CCN(CC)CCNC(=O)c1coc(CN2CCN(c3ccccc3F)CC2)n1,,1.2
CCc1ccc(CN2CCC(Oc3cc(OC)ccc3C(=O)NCCOC)CC2)cc1,,1.26
CCn1ccnc1CN1CCC(Oc2ccc(C(=O)NCCOC)cc2Cl)CC1,,0.829
COc1cccc(CCC(=O)N2CCC(n3nccc3NC(=O)C3CCOC3)CC2)c1 (stereo unspecified),,0.987
O=C1CCCN1CCC(=O)N1CCCC(CCc2ccc(F)c(F)c2)C1 (stereo unspecified),0.809,
O=C(CN1C(=O)c2ccccc2C1=O)NC1CCCc2c1cnn2-c1ccccc1F (stereo unspecified),,1.04

# An excerpt from above in order of length of the SMILES, low to high:
Structure (SMILES),bacterial growth OD600 (polymyxin B 0.75 µg/mL),bacterial growth OD600 (polymyxin B 1 µg/mL)
COc1cccc(O)c1CN1Cc2cc(Cl)ccc2OC(C)C1 (stereo unspecified),0.117,
O=C1CCCN1CCC(=O)N1CCCC(CCc2ccc(F)c(F)c2)C1 (stereo unspecified),0.809,
CCn1ccnc1CN1CCC(Oc2ccc(C(=O)NCCOC)cc2Cl)CC1,,0.829
O=C(Cc1c[nH]c2ccccc12)N1CCCC(CO)(CCOc2ccccc2)C1 (stereo unspecified),0.785,
COc1cccc(CCC(=O)N2CCC(n3nccc3NC(=O)C3CCOC3)CC2)c1 (stereo unspecified),,0.987
NC(=O)c1ccc(-c2ccc(F)c3c2OC(CNC(=O)CN2CC(c4ccccc4)CC2=O)C3)cc1 (stereo unspecified),0.775,

# (next part)

Structure (SMILES),bacterial growth OD600 (polymyxin B 0.75 µg/mL),bacterial growth OD600 (polymyxin B 1 µg/mL)
CC(=O)c1cc(C(=O)NCc2nc(-c3cccc(NC(=O)C4CCCN(C)C4)c3)oc2C)cs1 (stereo unspecified),0.861,
CC(=O)N1CCC(Oc2ccc(Cl)cc2C(=O)NCc2ccc(C)s2)CC1,,0.933
CCN(CC)C1CCN(C(=O)c2cn(C3CC3)cc(C(=O)NCC3CCCCC3)c2=O)C1 (stereo unspecified),0.741,
COc1ccc(C(CC(=O)N(C)Cc2c(C)nn(C)c2C)c2ccccc2)cc1 (stereo unspecified),,0.801
Cc1ccccc1C(=O)NC1CC(C)(C)Cc2nc(N3CCOCC3)ncc21 (stereo unspecified),0.754,
O=S(=O)(Cc1ccccc1)NCC1CCCN(Cc2cccc3cccnc23)C1 (stereo unspecified),0.777,
O=C1N(Cc2ccc(F)c(F)c2)CCCC1(O)CNC1(c2ccccc2)CC1 (stereo unspecified),,0.833
O=C(c1ccccc1)N1CCC2(CCCN(Cc3ccc(F)cc3)C2=O)C1 (stereo unspecified),,1.04
COc1cccc(CC2CN(Cc3cccn3-c3nccs3)CCO2)c1 (stereo unspecified),0.723,
CCN(CC1CCCN(CCc2cccc(F)c2)C1)C(=O)CC(C)C (stereo unspecified),,0.994
COc1ccc2c(c1)OC(C)CN(Cc1ccc3cccnc3c1)C2 (stereo unspecified),0.827,
CC1CCN(Cc2nnnn2CC(=O)N2CCCC(C(=O)c3cccnc3)C2)CC1 (stereo unspecified),,0.962
CCOC(=O)CC1COCCN1Cc1nc(-c2ccc(C(=O)OC)cc2)oc1C (stereo unspecified),,0.915
O=C(Nc1ccc2c(c1)CN(C(=O)C#Cc1ccccc1)CC2)c1ccccn1,,1.2
O=C(CCc1ccccc1)Nc1ccc(N2CCC(NCc3cccc(-n4cccn4)c3)CC2)cc1,0.776,

# From the supplement of paper PMC12889115
